Source: PubChem BioAssay AID1439 (NMMLSC, 2008)
In all, about 220,000 compounds went through this assay and about 770 (0.35%) were called active. The inconclusive results got no clear call from the source; some entries with a clear call stand among them for comparison. No stated cut-off is given here; in the data, active means binding response below about 49% or above about 150%; inconclusive means no clear call, values can overlap the other calls; inactive means in between.

By UniProt entry, the sequences of proteins in these tests, tags left out.
UniProt P09471, whole entry, looked up: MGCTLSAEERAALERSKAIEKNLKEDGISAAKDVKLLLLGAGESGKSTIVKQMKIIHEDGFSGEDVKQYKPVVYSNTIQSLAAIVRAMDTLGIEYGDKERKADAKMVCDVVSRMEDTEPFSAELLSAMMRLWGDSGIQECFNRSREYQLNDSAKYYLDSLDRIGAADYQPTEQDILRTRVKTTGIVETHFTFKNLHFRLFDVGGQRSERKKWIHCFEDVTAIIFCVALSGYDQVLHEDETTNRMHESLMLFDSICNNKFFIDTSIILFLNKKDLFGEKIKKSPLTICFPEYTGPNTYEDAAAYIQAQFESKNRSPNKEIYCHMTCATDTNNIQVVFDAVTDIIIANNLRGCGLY

molecular target: Guanine nucleotide-binding protein G(o) subunit alpha (Homo sapiens) (UniProt P09471); test: RGS7-Galphao binding modulators, primary screen, biochemical, multiplexed bead flow cytometry (AID 1439); settings: at 10 µM, actives lie on both sides;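 further: fluorescent Galphao held in activated GDP-AlF4 state binding bead-coupled RGS7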

Row | Structure (SMILES) | binding response (% of control)
1 | CCOc1ccc(NC(=O)c2ccccc2SC)cc1 | inconclusive: 98.9%
2 | Cc1ccccc1-n1c(SCC(=O)c2c(N)n(C)c(=O)n(C)c2=O)nc2sc3c(c2c1=O)CCCC3 | inactive: 88.6%
3 | COc1ccc(CCNCC(=O)Nc2ccc(C)c(S(=O)(=O)N(C)C)c2)cc1OC | inconclusive: 15.2%
4 | CCN1C(=O)/C(=C2/Sc3ccccc3N2CC)S/C1=N\c1ncn[nH]1 | inactive: 97%
5 | CCCNC(=O)c1onc(CSc2ccccn2)c1C(=O)NCCC | inconclusive: 96.9%
6 | Cc1cc(C[n+]2cc(Br)ccc2N)c2ncccc2c1 | inconclusive: 91.5%
7 | Cc1ccc(SCc2cn3c(C)cc(C)nc3n2)cc1 | inconclusive: 98.3%
8 | CCOc1ccc(CN2CCN(C3CCSCC3)CC2CCO)cc1 (stereo not drawn) | inactive: 100%
9 | CC(C)OP(=O)(OC(C)C)C(NC(=O)c1ccccc1)C(N)=O (stereo not drawn) | inconclusive: 97.6%
10 | COc1ccc(C2/C=C\CN(C(=O)Nc3ccccc3)CC(=O)N2Cc2ccc(F)cc2)cc1 (stereo not drawn) | inconclusive: 115%
11 | CCCCC(=O)NC1(C(F)(F)F)NC(=O)N(C)C1=O (stereo not drawn) | inconclusive: 101%
12 | Cn1c(=O)[nH]c(=O)c2c1nc(SCCO)n2CC(O)COc1ccccc1 (stereo not drawn) | inactive: 99.7%
13 | O=[N+]([O-])c1ccc(Sc2nnnn2-c2ccccc2)nc1 | inactive: 96.7%
14 | CCN(CC)S(=O)(=O)c1ccc(C)c(NC(=S)NC2CCCCC2)c1 | inconclusive: 196%
15 | C=C1CCN(C(C(=O)OC)C(C)C)S(=O)(=O)c2ccccc21 (stereo not drawn) | inconclusive: 81.7%
16 | COc1cc2c(cc1OC)C(c1ccc(Cl)cc1)=NCC2 | inconclusive: 103%
17 | CN1CCC(N(C)C(=S)NC(=O)c2cc(-c3cccc(Br)c3)nc3ccccc23)CC1 | inactive: 133%
18 | Cn1c(=O)c2c(nc(Sc3ncnn3CC(=O)N3CCOCC3)n2C)n(C)c1=O | inconclusive: 85.5%
19 | C=C1CCN([C@@H](C)C(=O)NCc2ccc(OC)cc2)S(=O)(=O)c2ccccc21 | inconclusive: 103%
20 | CCOc1ccccc1OCCCC(=O)N1CCN(S(=O)(=O)c2ccc(C)cc2)CC1 | inactive: 108%

From no. 12 as far as 14, copied from above:
Row | Structure (SMILES) | binding response (% of control)
12 | Cn1c(=O)[nH]c(=O)c2c1nc(SCCO)n2CC(O)COc1ccccc1 (stereo not drawn) | inactive: 99.7%
13 | O=[N+]([O-])c1ccc(Sc2nnnn2-c2ccccc2)nc1 | inactive: 96.7%
14 | CCN(CC)S(=O)(=O)c1ccc(C)c(NC(=S)NC2CCCCC2)c1 | inconclusive: 196%

More compounds

Row | Structure (SMILES) | binding response (% of control)
21 | Cc1ccc(NC(=S)Nc2cccc(-c3n[nH]c(=S)o3)c2)cc1 | inconclusive: 112%
22 | CCc1nnc(NC(=O)CSc2nccn2-c2cc(C)cc(C)c2)s1 | inactive: 101%
23 | COC(=O)c1sc(C(C)(C)C)cc1CS(=O)(=O)c1ccc(Cl)cc1 | inconclusive: 238%
24 | CCOC(=O)C(C)n1cnc2c(nnn2Cc2ccc(C)cc2)c1=O (stereo not drawn) | inactive: 112%
25 | O=c1[nH]c(N2CCN(Cc3ccc4c(c3)OCO4)CC2)nc2c1CCCC2 | inconclusive: 112%
26 | O=C1N/C(=N/N=C/c2ccc(F)cc2)SC1c1ccccc1 (stereo not drawn) | inconclusive: 110%
27 | C/C(=N\NC(=O)COc1ccccc1-c1ccccc1)c1ccc(O)cc1O | inconclusive: 94.4%
28 | Cc1ccc(CSCc2ccc(C(=O)NCC3CCCO3)o2)cc1 (stereo not drawn) | inactive: 98%
29 | O=C(O)Cc1sc(N/N=C\c2ccncc2)nc1-c1ccccc1 | inconclusive: 86.2%
30 | COc1ccccc1-c1cc(C(=O)NCc2ccccc2)no1 | inactive: 103%
31 | Cc1cnc(NC(=O)c2c(-c3ccccc3)noc2C)s1 | inconclusive: 110%
32 | CCOC(=O)C(=Cc1ccc(-n2ccnc2)cc1)C(=O)OCC | inconclusive: -417%
33 | Cc1ccc(C)c(NC(=O)C(Sc2cccc[n+]2[O-])c2ccccc2)c1 (stereo not drawn) | inconclusive: 101%
34 | N#C/C(=C(/O)CSc1n[nH]c(N)n1)c1nc2ccccc2[nH]1 | inconclusive: 68.3%
35 | O=C(Nc1cccc(S(=O)(=O)NC2=NCCC2)c1)c1cc(-c2ccco2)nc2ccccc12 | inconclusive: 278%
36 | O=C(O)C1CCN(Cc2cccnc2)CC1 | inconclusive: 105%
37 | S=C(NCc1cccs1)Nc1cc(Cl)cc(Cl)c1 | inconclusive: 107%
38 | CC1CCCN(C(=O)C2CCC(CNc3c(N4CCCCC4)c(=O)c3=O)CC2)C1 (stereo not drawn) | inconclusive: 109%
39 | C=CC1CN(CC(=O)OC)S(=O)(=O)c2ccccc21 (stereo not drawn) | inconclusive: 73.5%
40 | O=C(COC(=O)CCc1ccc(S(=O)(=O)N2CCOCC2)cc1)NCc1ccc(Cl)cc1 | inconclusive: 104%

Row | Structure (SMILES) | binding response (% of control)
41 | Cc1ccc(-c2cc(Cc3ccc(N(C)C)cc3)c(=O)[nH]n2)cc1 | inconclusive: 48.2%
42 | CCn1c(C)cc(/C=C2/NC(=O)N(c3ccccc3)C2=O)c1C | inconclusive: 84.8%
43 | c1ccc2c(c1)cnc1ccccc12 | inconclusive: 112%
44 | Cc1ccc(/C=N/Nc2ccc(Cl)nn2)cc1 | inconclusive: 97.1%
45 | COC(=O)Cn1c2c(c3cc(C)ccc31)CCCC2NC(C)c1ccccc1 (stereo not drawn) | inconclusive: -59.3%
46 | CC1CCc2cc(F)ccc2N1C(=O)c1cccs1 (stereo not drawn) | inconclusive: 114%
47 | Cn1c(Cc2ccccc2)nnc1SCc1cc(=O)n2ccsc2n1 | inconclusive: 84.3%
48 | COc1ccc(N2CCN(C(=O)c3c(C)nn(-c4ccccc4)c3C)CC2)cc1 | inactive: 95.1%
49 | C[C@@H]1NC(=O)/C(=C\c2ccccc2Cl)NC1=O | inconclusive: 82.4%
50 | COCCNC(=O)C(=O)N/N=C(\C)CC(=O)Nc1cccnc1 | inactive: 104%
51 | O=c1c(C(c2ccc(F)cc2)c2c(O)nc3n(c2=O)CCCS3)c(O)nc2n1CCCS2 | inconclusive: -36.4%
52 | O=C1OCc2ccc(NS(=O)(=O)c3ccc(C(F)(F)F)cc3)cc21 | inconclusive: 126%
53 | CCC(=O)Nc1cc(ON=C(C)C)cc([N+](=O)[O-])c1 | active: -14.7%
54 | CC1(OC(=O)CCc2ccccc2)C(=O)C=C2C=C(c3ccc(C#N)cc3)N(CCc3c[nH]c4ccccc34)C=C2C1=O (stereo not drawn) | inconclusive: 111%
55 | Cc1nc(NS(=O)(=O)c2ccccc2)sc1C(=O)N/N=C/c1ccccc1 | inconclusive: 84.6%
56 | Clc1ccc2c(c1)nc1n2CCCC1 | inconclusive: 127%
57 | COc1ccc(/C=C/C(=O)NCC(=O)N/N=C(/CCC(=O)O)c2ccccc2)cc1 | inconclusive: 212%
58 | Cc1nc(N2CCN(Cc3ccc4c(c3)OCO4)CC2)c2cc(-c3ccccc3)sc2n1 | inconclusive: 99%
